{"sequences": {"note": "The chains behind the UniProt entries cited, without tags or fusion partners. Where a name states a change or a piece, a line headed by the entry shows the natural chain unless it says otherwise.", "UniProt O75643, whole entry, looked up": "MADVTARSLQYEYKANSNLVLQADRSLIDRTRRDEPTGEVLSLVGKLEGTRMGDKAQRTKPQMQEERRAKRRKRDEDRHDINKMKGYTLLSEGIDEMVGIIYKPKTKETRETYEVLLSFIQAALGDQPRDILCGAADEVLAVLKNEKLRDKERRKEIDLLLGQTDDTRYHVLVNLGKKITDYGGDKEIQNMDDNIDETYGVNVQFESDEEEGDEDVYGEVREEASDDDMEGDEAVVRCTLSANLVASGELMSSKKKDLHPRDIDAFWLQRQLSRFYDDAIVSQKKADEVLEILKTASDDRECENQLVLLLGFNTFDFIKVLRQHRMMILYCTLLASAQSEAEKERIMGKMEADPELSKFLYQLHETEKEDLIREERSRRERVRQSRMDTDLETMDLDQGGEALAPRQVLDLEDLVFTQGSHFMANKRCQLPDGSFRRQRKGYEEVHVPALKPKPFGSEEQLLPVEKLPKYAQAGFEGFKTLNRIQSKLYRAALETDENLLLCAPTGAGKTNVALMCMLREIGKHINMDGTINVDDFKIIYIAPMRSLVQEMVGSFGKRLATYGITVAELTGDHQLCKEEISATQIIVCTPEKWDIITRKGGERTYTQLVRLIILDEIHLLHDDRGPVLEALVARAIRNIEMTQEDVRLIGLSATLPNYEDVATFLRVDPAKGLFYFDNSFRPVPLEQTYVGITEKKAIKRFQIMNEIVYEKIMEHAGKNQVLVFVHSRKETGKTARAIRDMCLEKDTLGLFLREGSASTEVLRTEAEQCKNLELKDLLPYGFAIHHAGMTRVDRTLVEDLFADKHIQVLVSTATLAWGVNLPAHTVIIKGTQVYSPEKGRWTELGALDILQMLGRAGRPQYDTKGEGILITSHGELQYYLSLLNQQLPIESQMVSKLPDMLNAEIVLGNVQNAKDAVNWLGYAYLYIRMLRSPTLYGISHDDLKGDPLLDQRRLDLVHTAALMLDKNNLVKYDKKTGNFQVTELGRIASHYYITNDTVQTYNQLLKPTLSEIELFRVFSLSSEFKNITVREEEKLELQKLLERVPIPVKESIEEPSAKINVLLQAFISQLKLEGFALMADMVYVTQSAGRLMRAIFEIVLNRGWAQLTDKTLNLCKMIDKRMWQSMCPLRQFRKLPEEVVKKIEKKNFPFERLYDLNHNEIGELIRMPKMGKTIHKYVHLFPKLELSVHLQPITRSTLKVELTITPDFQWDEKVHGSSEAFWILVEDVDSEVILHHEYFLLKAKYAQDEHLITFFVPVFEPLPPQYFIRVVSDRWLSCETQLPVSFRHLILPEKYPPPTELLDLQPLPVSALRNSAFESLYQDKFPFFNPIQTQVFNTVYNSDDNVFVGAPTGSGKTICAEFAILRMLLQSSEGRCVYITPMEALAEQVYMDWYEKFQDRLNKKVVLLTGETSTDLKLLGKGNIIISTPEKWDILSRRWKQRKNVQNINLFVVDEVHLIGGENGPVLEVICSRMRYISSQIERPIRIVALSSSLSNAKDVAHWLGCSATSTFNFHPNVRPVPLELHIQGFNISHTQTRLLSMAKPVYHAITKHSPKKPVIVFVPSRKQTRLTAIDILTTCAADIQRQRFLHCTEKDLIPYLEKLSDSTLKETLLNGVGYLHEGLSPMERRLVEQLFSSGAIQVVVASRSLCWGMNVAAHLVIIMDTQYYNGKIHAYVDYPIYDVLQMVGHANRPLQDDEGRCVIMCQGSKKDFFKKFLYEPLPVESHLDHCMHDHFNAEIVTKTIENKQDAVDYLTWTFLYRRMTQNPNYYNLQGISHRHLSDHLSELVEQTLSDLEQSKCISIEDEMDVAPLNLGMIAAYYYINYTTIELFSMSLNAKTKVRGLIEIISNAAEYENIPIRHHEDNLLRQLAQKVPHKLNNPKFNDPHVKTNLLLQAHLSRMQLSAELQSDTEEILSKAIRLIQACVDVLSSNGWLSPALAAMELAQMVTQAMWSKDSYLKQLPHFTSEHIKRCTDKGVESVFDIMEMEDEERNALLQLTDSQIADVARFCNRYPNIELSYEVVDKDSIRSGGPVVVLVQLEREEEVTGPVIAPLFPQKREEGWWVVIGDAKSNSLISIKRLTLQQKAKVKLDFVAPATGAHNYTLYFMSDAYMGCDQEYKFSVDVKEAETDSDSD", "UniProt Q7Z7L1": "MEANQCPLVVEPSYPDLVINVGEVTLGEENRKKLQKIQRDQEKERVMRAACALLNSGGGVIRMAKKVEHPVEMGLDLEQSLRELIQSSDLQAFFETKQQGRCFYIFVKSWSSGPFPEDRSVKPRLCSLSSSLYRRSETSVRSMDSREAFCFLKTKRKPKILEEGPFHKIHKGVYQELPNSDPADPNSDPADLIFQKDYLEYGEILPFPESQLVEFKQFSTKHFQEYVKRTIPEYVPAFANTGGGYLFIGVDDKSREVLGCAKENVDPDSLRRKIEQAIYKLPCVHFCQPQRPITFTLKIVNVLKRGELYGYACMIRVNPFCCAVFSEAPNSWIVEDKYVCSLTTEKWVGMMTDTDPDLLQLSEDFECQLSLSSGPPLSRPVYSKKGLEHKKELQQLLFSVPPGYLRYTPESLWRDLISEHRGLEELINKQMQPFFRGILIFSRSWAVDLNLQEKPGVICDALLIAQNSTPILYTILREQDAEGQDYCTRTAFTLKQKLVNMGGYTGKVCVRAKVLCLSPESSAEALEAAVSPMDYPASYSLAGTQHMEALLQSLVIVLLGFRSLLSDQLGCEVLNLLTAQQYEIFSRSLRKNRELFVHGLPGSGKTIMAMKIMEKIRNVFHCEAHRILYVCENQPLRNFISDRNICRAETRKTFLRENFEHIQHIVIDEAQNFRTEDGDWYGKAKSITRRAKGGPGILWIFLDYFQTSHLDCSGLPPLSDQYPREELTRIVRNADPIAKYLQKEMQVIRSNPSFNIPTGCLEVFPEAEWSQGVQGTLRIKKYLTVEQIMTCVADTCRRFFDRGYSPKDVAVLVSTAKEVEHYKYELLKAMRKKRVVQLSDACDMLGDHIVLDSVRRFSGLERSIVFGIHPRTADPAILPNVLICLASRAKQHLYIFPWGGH", "UniProt Q16637, whole entry, looked up": "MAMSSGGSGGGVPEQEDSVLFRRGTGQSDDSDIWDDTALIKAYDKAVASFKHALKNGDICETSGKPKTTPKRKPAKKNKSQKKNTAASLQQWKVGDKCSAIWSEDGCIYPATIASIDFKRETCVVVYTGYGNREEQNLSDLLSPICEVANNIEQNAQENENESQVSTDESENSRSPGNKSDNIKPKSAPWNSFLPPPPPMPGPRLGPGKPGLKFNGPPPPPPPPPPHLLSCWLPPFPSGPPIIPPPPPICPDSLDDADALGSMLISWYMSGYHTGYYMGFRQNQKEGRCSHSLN", "UniProt O60906": "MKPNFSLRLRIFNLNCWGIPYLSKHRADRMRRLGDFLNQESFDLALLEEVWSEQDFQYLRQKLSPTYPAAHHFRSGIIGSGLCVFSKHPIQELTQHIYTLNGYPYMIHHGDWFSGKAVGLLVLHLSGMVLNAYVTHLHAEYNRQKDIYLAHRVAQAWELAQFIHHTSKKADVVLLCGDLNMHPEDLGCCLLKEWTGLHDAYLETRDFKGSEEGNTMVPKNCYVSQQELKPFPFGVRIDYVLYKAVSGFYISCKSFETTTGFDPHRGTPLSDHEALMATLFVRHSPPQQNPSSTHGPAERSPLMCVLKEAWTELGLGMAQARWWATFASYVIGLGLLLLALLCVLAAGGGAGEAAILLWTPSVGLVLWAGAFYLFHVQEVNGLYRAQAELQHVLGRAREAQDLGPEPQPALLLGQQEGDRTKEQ", "UniProt Q8IY18": "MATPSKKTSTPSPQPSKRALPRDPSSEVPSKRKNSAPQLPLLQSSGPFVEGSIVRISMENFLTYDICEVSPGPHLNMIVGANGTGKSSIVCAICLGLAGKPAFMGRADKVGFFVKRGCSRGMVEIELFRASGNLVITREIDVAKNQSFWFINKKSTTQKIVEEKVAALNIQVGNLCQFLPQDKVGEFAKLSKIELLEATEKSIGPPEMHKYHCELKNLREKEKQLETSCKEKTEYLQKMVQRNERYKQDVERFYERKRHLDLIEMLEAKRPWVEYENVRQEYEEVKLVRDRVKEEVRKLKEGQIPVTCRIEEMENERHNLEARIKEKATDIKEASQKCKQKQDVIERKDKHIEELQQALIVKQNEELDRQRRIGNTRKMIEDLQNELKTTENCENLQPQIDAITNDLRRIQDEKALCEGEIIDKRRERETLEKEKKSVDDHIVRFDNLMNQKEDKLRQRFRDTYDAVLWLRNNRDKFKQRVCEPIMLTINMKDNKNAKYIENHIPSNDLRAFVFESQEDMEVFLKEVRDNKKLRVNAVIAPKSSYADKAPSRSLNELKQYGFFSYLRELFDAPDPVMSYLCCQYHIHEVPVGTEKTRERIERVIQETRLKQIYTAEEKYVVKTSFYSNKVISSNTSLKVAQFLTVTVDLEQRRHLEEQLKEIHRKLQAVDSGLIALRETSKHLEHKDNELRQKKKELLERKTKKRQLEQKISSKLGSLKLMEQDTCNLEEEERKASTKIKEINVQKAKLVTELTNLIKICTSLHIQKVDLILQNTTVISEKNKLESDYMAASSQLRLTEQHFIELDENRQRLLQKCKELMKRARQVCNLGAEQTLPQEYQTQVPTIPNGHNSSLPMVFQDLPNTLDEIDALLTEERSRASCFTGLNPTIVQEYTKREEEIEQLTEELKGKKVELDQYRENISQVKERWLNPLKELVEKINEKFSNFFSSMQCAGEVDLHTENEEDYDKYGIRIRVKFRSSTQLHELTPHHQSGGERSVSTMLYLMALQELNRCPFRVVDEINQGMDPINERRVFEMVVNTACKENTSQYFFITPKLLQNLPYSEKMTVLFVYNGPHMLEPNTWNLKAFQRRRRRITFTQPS", "UniProt Q14BN4": "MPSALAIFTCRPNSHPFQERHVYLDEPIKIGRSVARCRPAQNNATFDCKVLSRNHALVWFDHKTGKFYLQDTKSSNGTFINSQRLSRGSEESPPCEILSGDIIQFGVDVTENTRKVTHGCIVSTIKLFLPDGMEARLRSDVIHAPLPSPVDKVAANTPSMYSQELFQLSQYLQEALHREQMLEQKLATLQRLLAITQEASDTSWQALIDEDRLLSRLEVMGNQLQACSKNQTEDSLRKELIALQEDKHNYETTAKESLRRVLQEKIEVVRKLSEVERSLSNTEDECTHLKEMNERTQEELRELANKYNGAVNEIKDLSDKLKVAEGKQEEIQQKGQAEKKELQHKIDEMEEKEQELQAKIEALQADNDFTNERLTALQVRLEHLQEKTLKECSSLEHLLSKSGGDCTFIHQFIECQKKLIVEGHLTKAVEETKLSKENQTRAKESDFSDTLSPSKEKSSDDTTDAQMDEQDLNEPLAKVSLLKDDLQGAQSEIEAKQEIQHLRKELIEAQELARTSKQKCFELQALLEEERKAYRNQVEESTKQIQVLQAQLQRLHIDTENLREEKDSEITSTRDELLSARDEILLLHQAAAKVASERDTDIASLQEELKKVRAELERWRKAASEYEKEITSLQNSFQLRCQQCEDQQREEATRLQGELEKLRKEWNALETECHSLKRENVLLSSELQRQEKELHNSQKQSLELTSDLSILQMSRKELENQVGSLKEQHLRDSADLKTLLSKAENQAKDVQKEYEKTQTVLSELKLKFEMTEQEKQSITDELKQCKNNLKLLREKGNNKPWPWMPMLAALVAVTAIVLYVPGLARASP", "UniProt Q9BWU0": "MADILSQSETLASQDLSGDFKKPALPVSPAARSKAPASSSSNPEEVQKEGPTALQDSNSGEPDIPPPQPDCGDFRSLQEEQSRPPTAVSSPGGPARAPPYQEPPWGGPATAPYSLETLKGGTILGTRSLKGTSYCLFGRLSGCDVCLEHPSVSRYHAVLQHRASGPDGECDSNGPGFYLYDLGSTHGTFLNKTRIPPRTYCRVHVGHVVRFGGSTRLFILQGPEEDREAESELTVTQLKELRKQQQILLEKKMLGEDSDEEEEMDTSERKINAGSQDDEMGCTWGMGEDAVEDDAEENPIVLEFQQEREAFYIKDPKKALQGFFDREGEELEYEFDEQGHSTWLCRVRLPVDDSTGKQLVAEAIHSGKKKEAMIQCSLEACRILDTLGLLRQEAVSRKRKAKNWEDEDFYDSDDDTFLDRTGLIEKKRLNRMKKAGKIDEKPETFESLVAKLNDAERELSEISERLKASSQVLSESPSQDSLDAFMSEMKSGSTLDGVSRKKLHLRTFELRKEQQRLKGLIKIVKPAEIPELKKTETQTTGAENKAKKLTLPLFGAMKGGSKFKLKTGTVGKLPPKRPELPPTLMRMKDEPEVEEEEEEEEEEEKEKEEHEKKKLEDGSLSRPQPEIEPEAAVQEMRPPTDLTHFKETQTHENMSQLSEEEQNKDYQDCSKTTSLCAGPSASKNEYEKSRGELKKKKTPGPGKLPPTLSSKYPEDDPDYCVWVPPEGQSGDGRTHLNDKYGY"}, "source": "the supplement of paper PMC12067093", "about": "“Discovery and optimisation of a covalent ligand for TRIM25 and its application to targeted protein ubiquitination” (Chemical Science, 2025)", "note": "The list shows a part of the results.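 Note: competitive chemoproteomic profiling in live THP-1 cells with an iodoacetamide desthiobiotin (IA-DTB) probe, comparing probe-labelled peptide intensities in compound-treated cells against DMSO-treated controls.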"}
{"compound": "CC1Cc2ccccc2N1C(=O)C1CCCN(C1)C(=O)CCl (mixture of isomers) [TRIM25 ligand 11 (diastereomer mixture)]", "assay": "probe-labelled cysteine peptide fold change vs DMSO (competition) (log2 fold change); higher = less target engagement (more negative = stronger competition)", "conditions": "50 µM; THP-1; incubation time: 4 h"}
{"target": "SNRNP200_O75643_1127_RMWQSMCPLR (UniProt O75643)", "probe-labelled cysteine peptide fold change": 0.0949}
{"target": "SNRNP200_O75643_1702+1706_CVIMCQGSK (UniProt O75643)", "probe-labelled cysteine peptide fold change": -0.197}
{"target": "SLFN11_Q7Z7L1_322_VNPFCCAVFSEAPNSWIVEDK (UniProt Q7Z7L1)", "probe-labelled cysteine peptide fold change": 0.447}
{"target": "SMAD4_Q13485_401_CLSDHAVFVQSYYLDR (UniProt Q13485)", "probe-labelled cysteine peptide fold change": -0.0744}
{"target": "SMCHD1_A6NHR9_474_RPIFECFWNGR (UniProt A6NHR9)", "probe-labelled cysteine peptide fold change": 0.0994}
{"target": "SMN2_Q16637_107_CSAIWSEDGCIYPATIASIDFKR (UniProt Q16637)", "probe-labelled cysteine peptide fold change": -0.263}
{"target": "SMPD2_O60906_188_KADVVLLCGDLNMHPEDLGCCLLK (UniProt O60906)", "probe-labelled cysteine peptide fold change": -0.00132}
{"target": "SNRNP200_O75643_1278_VVSDRWLSCETQLPVSFR (UniProt O75643)", "probe-labelled cysteine peptide fold change": -0.0648}
{"target": "SMC5_Q8IY18_176_VAALNIQVGNLCQFLPQDK (UniProt Q8IY18)", "probe-labelled cysteine peptide fold change": 0.0894}
{"target": "SLMAP_Q14BN4_286_SLSNTEDECTHLK (UniProt Q14BN4)", "probe-labelled cysteine peptide fold change": -0.0566}
{"target": "SLC30A1_Q9Y6M5_390_CEDPTSYMEVAK (UniProt Q9Y6M5)", "probe-labelled cysteine peptide fold change": -0.165}
{"target": "SLC39A8_Q9C0K1_101_FSVICPAVLQQLNFHPCEDRPK (UniProt Q9C0K1)", "probe-labelled cysteine peptide fold change": 0.105}
{"target": "SNRNP200_O75643_742_DMCLEK (UniProt O75643)", "probe-labelled cysteine peptide fold change": 0.0779}
{"target": "SMCHD1_A6NHR9_1445_DNDKEDGCFYFR (UniProt A6NHR9)", "probe-labelled cysteine peptide fold change": 0.0208}
{"target": "SMG8_Q8ND04_611_STGACNCGR (UniProt Q8ND04)", "probe-labelled cysteine peptide fold change": -0.0993}
{"target": "SLFN11_Q7Z7L1_884_TADPAILPNVLICLASR (UniProt Q7Z7L1)", "probe-labelled cysteine peptide fold change": -0.208}
{"target": "SNRNP200_O75643_516_TNVALMCMLR (UniProt O75643)", "probe-labelled cysteine peptide fold change": 0.0911}
{"target": "SNRNP40_Q96DI7_168_GPQLVCTGSDDGTVK (UniProt Q96DI7)", "probe-labelled cysteine peptide fold change": -0.0545}
{"target": "SLC7A7_Q9UM01_349_EGHLPDAICMIHVER (UniProt Q9UM01)", "probe-labelled cysteine peptide fold change": 0.0274}
{"target": "SMC1A_Q14683_523_LIDLCQPTQK (UniProt Q14683)", "probe-labelled cysteine peptide fold change": -0.0144}
{"target": "SLC4A1AP_Q9BWU0_399_EGEELEYEFDEQGHSTWLCR (UniProt Q9BWU0)", "probe-labelled cysteine peptide fold change": 0.0332}
{"target": "SLX4_Q8IY92_318_CLDEAEK (UniProt Q8IY92)", "probe-labelled cysteine peptide fold change": 0.0935}
{"target": "SMS_P52788_248_GDCYQVLIEDCIPVLK (UniProt P52788)", "probe-labelled cysteine peptide fold change": 0.0591}
{"target": "SLC4A1AP_Q9BWU0_200_LSGCDVCLEHPSVSR (UniProt Q9BWU0)", "probe-labelled cysteine peptide fold change": 0.0426}
{"target": "SMC2_O95347_132_VQDLFCSVGLNVNNPHFLIMQGR (UniProt O95347)", "probe-labelled cysteine peptide fold change": 0.0291}
{"target": "SLFN11_Q7Z7L1_126_LCSLSSSLYR (UniProt Q7Z7L1)", "probe-labelled cysteine peptide fold change": -0.0677}
{"target": "SMU1_Q2TAY7_416_NPEHFVVCNR (UniProt Q2TAY7)", "probe-labelled cysteine peptide fold change": 0.0655}
{"target": "SMNDC1_O75940_214_VGVGTCGIADKPMTQYQDTSK (UniProt O75940)", "probe-labelled cysteine peptide fold change": -0.521}
{"target": "SMC5_Q8IY18_229_QLETSCK (UniProt Q8IY18)", "probe-labelled cysteine peptide fold change": 0.0551}
{"target": "SMC5_Q8IY18_582_ELFDAPDPVMSYLCCQYHIHEVPVGTEK (UniProt Q8IY18)", "probe-labelled cysteine peptide fold change": 0.367}
{"target": "SMCHD1_A6NHR9_1823_DLLTFPDNVEHCETVFGMLLGDTIILDNLDAANHYR (UniProt A6NHR9)", "probe-labelled cysteine peptide fold change": 0.275}
{"target": "SLC3A2_P08195_431_WCSWSLSQAR (UniProt P08195)", "probe-labelled cysteine peptide fold change": -0.013}
{"target": "SMPD1_P17405_590_GHPPSEPCGTPCR (UniProt P17405)", "probe-labelled cysteine peptide fold change": 0.368}
{"target": "SMC4_Q9NTJ3_110_RFSCIIGPNGSGK (UniProt Q9NTJ3)", "probe-labelled cysteine peptide fold change": 0.163}
{"target": "SLFN13_Q68D06_286_LPIVHFCSSKPR (UniProt Q68D06)", "probe-labelled cysteine peptide fold change": 0.00514}
